From PubChem BioAssay AID1347075 (National Center for Advancing Translational Sciences (NCATS), 2019)
In all, about 400,000 compounds went through this assay and about 5,500 (1.4%) were called active. Inconclusive means that the source gave no clear call. Such entries were picked first, then a sample of the others. Calls follow the shape of the dose curve; as a rule, active = well fitted cell-killing curve with a large enough effect; inconclusive = small, poorly fitted or top-dose-only effect, or effect the other way; inactive = flat fitted curve, though single readings scatter. A potency beside an inconclusive call is a rough fit, not a confirmed value.

Test: qHTS assay for MDR1-selective chemotherapeutics: Primary screen using the parental adenocarcinoma cell KB-3-1; also: nearly all actives have a fitted effect of over 60% in size
Details: KB-3-1 viability, CellTiter-Glo ATP luminescence, 72 h; activity change, negative = cytotoxic: at 46.1 µM (top of the series)
How it was run: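 Parental KB-3-1 viability, qHTS format: 72 h compound exposure, 37 °C; CellTiter-Glo; media-only wells and DMSO plates as controls; concentration-effect fits on corrected data.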
% is scaled to controls: 0 for no effect and ±100 for the full control effect; potency is read from the fitted curve at half-maximal effect.

Structure (SMILES) | Potency | activity change, negative = cytotoxic
COc1ccc(/C(C)=N/Nc2nc3ccccc3nc2C)cc1 | active: 14.6 µM | –
CC(=O)c1cccc(-c2ccnc3c2CC(C(=O)Nc2ccc(Cl)cc2)O3)c1 (stereo not drawn) | inconclusive: 18.4 µM [cytotoxic, single point] | –
O=C(Nc1c(O)c2ccccc2oc1=O)c1cccc(F)c1 | – | inactive: -1.1%
Cc1nc(NC(=O)CSc2nnc(C3CC3)n2C)sc1C | – | inactive: 1.59%
O=C(CSc1nnc(NC2CC2)s1)Nc1ccc(N2CCOCC2)cc1 | – | inactive: 4.31%
COc1cccc(/C=N/NC(=O)c2cc(-c3cccn3C)n[nH]2)c1 | inconclusive: 25.9 µM [rising, single point] | –
O=C1/C(=C/c2ccccc2)SC(=S)N1CC(=O)N1CCCCC1c1cccnc1 (stereo not drawn) | – | inactive: -19.8%
COc1cc(NC(=O)NCCN2CCN(c3ccc(Cl)cc3)CC2)ccc1C | inconclusive: 14.6 µM [cytotoxic, partial curve, poor fit] | –
Nc1nc2ccccc2cc1C(=O)NCc1ccc(-c2ccccc2)cc1 | active: 2.31 µM | –
Cc1ccc(N(CC(=O)N/N=C/c2cccnc2)S(=O)(=O)c2ccccc2)cc1 | – | inactive: -4.73%
O=C(Cc1c(F)cccc1Cl)Nc1cccc(S(=O)(=O)NC2=NCCCCC2)c1 | – | inactive: -7.43%
CN(C(=O)c1cccc(NC(=O)Cc2ccc(NC(=O)C3CCN(C(=O)C4CCCCC4)CC3)cc2)c1)C1CCCCC1 | inconclusive: 23.1 µM [cytotoxic, single point] | –
CCOC(=O)c1cc(CC)sc1NC(=O)COC(=O)c1cc[n+]([O-])cc1 | inconclusive: 0.259 µM [rising, full curve] | –
CC1CCCCN1CC(O)COCCC12CC3CC(CC(C3)C1)C2 (stereo not drawn) | active: 16.4 µM | –
CCCCOC(=O)c1ccc(NC(=O)Cc2coc3c(C)c(C)ccc23)cc1 | – | inactive: 1.79%
c1cc(Nc2cccc3nccnc23)c2nccnc2c1 | inconclusive: 29.1 µM [cytotoxic, single point] | –
COC(=O)c1ccccc1NC(=O)C1(c2cccs2)CCOCC1 | – | inactive: -4.34%
COc1ccc([C@H]2CC(=O)C=C(c3ccccc3OC)C2)cc1OC | inconclusive: 32.6 µM [cytotoxic, single point] | –
O=[N+]([O-])c1ccc(N2CCc3ccccc3C2)nc1 | – | inactive: -2.08%
CCCCCCN1C[C@@H](n2cc(C3CC3)nn2)[C@H](O)C[C@@H]1c1ccc(Cl)cc1 | inconclusive: 23.1 µM [cytotoxic, single point] | –
COC(=O)c1cccc(C#CC(NP(=O)(c2ccccc2)c2ccccc2)c2ccccc2)c1 (stereo not drawn) | inconclusive: 23.1 µM [cytotoxic, single point] | –
COc1ccc(Cl)cc1N(CC(=O)N(C)C)S(=O)(=O)c1ccc(C)c([N+](=O)[O-])c1 | – | inactive: -14.8%
O=C(CNC(=O)C1COc2ccccc2O1)N/N=C/c1ccc(O)cc1O (stereo not drawn) | inconclusive: 18.4 µM [cytotoxic, single point] | –

Entries listed so far that contain an aryl thioether with sulfur outside any ring (two):
Structure (SMILES) | Potency | activity change, negative = cytotoxic
Cc1nc(NC(=O)CSc2nnc(C3CC3)n2C)sc1C | – | inactive: 1.59%
O=C(CSc1nnc(NC2CC2)s1)Nc1ccc(N2CCOCC2)cc1 | – | inactive: 4.31%

No new results follow: entries from further up.
Structure (SMILES) | Potency | activity change, negative = cytotoxic
CC1CCCCN1CC(O)COCCC12CC3CC(CC(C3)C1)C2 (stereo not drawn) | active: 16.4 µM | –
CCCCOC(=O)c1ccc(NC(=O)Cc2coc3c(C)c(C)ccc23)cc1 | – | inactive: 1.79%

(listing goes on)

Structure (SMILES) | Potency | activity change, negative = cytotoxic
O=C(Nc1ccc([N+](=O)[O-])cc1)Nc1nc(-c2ccc(Cl)s2)cs1 | active: 2.91 µM | –
OC(COc1ccc2c(c1)CCC2)Cn1cnc2ccccc21 (stereo not drawn) | inconclusive: 23.1 µM [cytotoxic, single point] | –
C/C=C/c1ccc(OCCCCN2CC(C)CC(C)C2)c(OC)c1 (stereo not drawn) | inconclusive: 23.1 µM [cytotoxic, single point] | –
COc1ccc(CCNS(=O)(=O)c2ccc(F)c(C(=O)Nc3ccc(Cl)cc3)c2)cc1OC | inconclusive: 29.1 µM [cytotoxic, single point] | –
Cc1ccc(O)c(/C=N/NC(=O)COc2ccc3c(C)cc(=O)oc3c2)c1 | active: 18.4 µM | –
CN(C(=O)c1ccc(S(=O)(=O)N(C)C)cc1)c1ccc2ccccc2c1 | – | inactive: -3.29%
O=C1CC(c2ccccc2F)c2cc3c(cc2N1)CCC3 (stereo not drawn) | active: 8.2 µM | –
COc1ccc(C2CC(=O)C(C=NCCCO)=C(O)C2)cc1 (stereo not drawn) | inconclusive: 14.6 µM [cytotoxic, partial curve, poor fit] | –
N#CCCN(C(=O)CCl)c1cccc(Cl)c1 | active: 20.6 µM | –
CN1CCN(c2nc3ccccn3c(=O)c2/C=C(\C#N)S(=O)(=O)c2ccccc2)CC1 | inconclusive: 23.1 µM [rising, partial curve, poor fit] | –
COc1ccc(Cl)cc1S(=O)(=O)N1CCN(C(=O)c2n[nH]c(=O)c3ccccc23)CC1 | inconclusive: 7.31 µM [cytotoxic, partial curve, poor fit] | –
O=C(O)c1nc2nc(Cl)c(Cl)nc2[nH]1 | – | inconclusive: 4.1%
CCCCS(=O)(=O)CC(COc1ccccc1)OC(=O)c1ccccc1 (stereo not drawn) | inconclusive: 10.3 µM [rising, partial curve, poor fit] | –
CCN(CC(=O)NCc1ccc(F)cc1)C(=O)/C=C/c1ccc(S(=O)(=O)N(CC)CC)cc1 | inconclusive: 23.1 µM [cytotoxic, single point] | –
O=C(Nc1ccccn1)Nc1ccccc1Cl | – | inactive: 0.659%
COc1cc(CNCCSc2nnnn2C)cc(Br)c1OCc1ccc(F)cc1 | inconclusive: 29.1 µM [cytotoxic, single point] | –
Cc1nn(C)cc1C(C(=O)NC1CCCCC1)N(CCc1ccccc1)C(=O)c1cnccn1 (stereo not drawn) | – | inconclusive: -41.2%
CCOCCn1c(CN2CCN(c3cccc(Cl)c3)CC2)nc2c1c(=O)n(C)c(=O)n2C | – | inactive: -14.2%
C=C1C=C(C(F)F)n2ncc(C(=O)NCc3ccccc3OC)c2N1 | – | inactive: -21.8%
COc1ccc(OC)c(Nc2ncnc3c2cnn3-c2cccc(Cl)c2)c1 | inconclusive: 29.1 µM [cytotoxic, single point] | –
CC(/C=N\NC(=O)c1cc(C)oc1C)=C\c1ccccc1 | – | inactive: -2.12%
CCN(CC(=O)Nc1ccccc1OC)C(=O)/C=C/c1cccs1 | – | inactive: 3.4%
O=C(N/N=C1/CC2CCC1C2)c1cc2ccccc2cc1O (stereo not drawn) | inconclusive: 29.1 µM [cytotoxic, single point] | –

Structure (SMILES) | Potency | activity change, negative = cytotoxic
C[C@@H]1C=C[C@](Cc2ccccc2)(C(=O)NCC2CC2)N1C(=O)c1ccccc1 | – | inactive: 11.3%
CC(C)C[C@@H](CN1CCC[C@@H]1CN1C(=O)C(=O)NC[C@@H]1Cc1ccc(O)cc1)N1C[C@H](Cc2ccc(O)cc2)N(CC2CCCCCC2)C(=O)C1=O | – | inactive: 1.03%
CC(=O)Nc1ccc(NC(=O)COC(=O)/C(=C/c2ccccc2)n2nnnc2C)cc1 | inconclusive: 29.1 µM [cytotoxic, single point] | –
COc1cccc(-c2nnc(NC(=O)c3ccc(S(=O)(=O)N(CC(C)C)CC(C)C)cc3)o2)c1 | inconclusive: 2.31 µM [cytotoxic, full curve, poor fit] | –
CCOc1ccc(NS(=O)(=O)c2ccc(-c3cnc(C4CC4)o3)cc2)cc1 | inconclusive: 29.1 µM [cytotoxic, single point] | –
CN(C)S(=O)(=O)c1cccc(NC(=O)c2cccc(S(=O)(=O)N3CCCCC3)c2)c1 | inconclusive: 29.1 µM [cytotoxic, single point] | –
O=C1NC[C@H](CCCCN2C[C@H](Cc3ccccc3)N(CC3CCCCC3)C(=O)C2=O)N(CCc2ccccc2)C1=O | inconclusive: 29.1 µM [cytotoxic, single point] | –
CCCCCC1CCC(C(=O)NNC(=S)NCC)CC1 (stereo not drawn) | inconclusive: 16.4 µM [cytotoxic, partial curve] | –
COc1ccc(CCNC(=O)c2cc(S(=O)(=O)N3CCc4ccccc43)ccc2F)cc1OC | inconclusive: 16.4 µM [cytotoxic, single point] | –
NC(=NCCc1ccccc1)NC(=O)c1cc(Cl)ccc1O | inconclusive: 29.1 µM [cytotoxic, single point] | –
C=CCn1c(=S)[nH]c2cc(-c3ccccc3)sc2c1=O | inconclusive: 5.8 µM [cytotoxic, full curve] | –
CN(c1ccccc1)S(=O)(=O)c1ccc(C(=O)Nc2nnc(-c3ccc(F)cc3)o2)cc1 | inconclusive: 18.4 µM [cytotoxic, single point] | –
COc1cccc(CN(C)C(=O)c2cc(COc3ccc4ncccc4c3)on2)c1 | active: 4.11 µM | –
O=C1[C@H]2[C@@H](/C=C/c3ccccc3)N3C(=O)CN(Cc4ccccn4)C(=O)[C@@]3(Cc3ccccc3)[C@H]2C(=O)N1c1ccccc1 | inconclusive: 20.6 µM [rising, single point] | –
Nc1cc(S(=O)(=O)N2CCCCC2)ccc1Oc1ccc(Cl)cc1 | inconclusive: 29.1 µM [cytotoxic, single point] | –
CCOC(=O)[C@]12CCC=C1N(Cc1cccc3ccccc13)C(=O)[C@H](CC(=O)NCCc1ccccc1OC)C2 | inconclusive: 20.6 µM [cytotoxic, single point] | –
OC(COC(c1ccc(Cl)cc1)c1ccc(Cl)cc1)CN1CCN(c2ccccn2)CC1 (stereo not drawn) | active: 18.4 µM | –
Cc1ccc(NS(=O)(=O)c2ccc3c(c2)n(C)c(=O)n3C)cc1 | inconclusive: 32.6 µM [cytotoxic, partial curve, poor fit] | –
COc1ccc(NC(=O)C2CCCN(S(=O)(=O)c3ccc4c(c3)CCCC(=O)N4)C2)cc1OC (stereo not drawn) | inconclusive: 29.1 µM [cytotoxic, single point] | –
O=C(Nc1ccccc1-c1nc2ccccc2s1)C1=COCCO1 | inconclusive: 29.1 µM [cytotoxic, single point] | –
Cc1ccc(S(=O)(=O)N2CCC(=O)N([C@H](COCc3ccc(Cl)cc3)Cc3ccccc3)CC2)cc1 | inconclusive: 29.1 µM [cytotoxic, single point] | –
Cc1ccc(-n2[nH]c(C)c(C=Nc3ccc(S(=O)(=O)Nc4nccs4)cc3)c2=O)cc1C | inconclusive: 6.51 µM [cytotoxic, partial curve] | –
